The supplement of paper PMC10849652
The other results are listed elsewhere or left out.

By UniProt entry, the sequences of proteins in these tests, tags left out. Where a name states a change or a piece, a line headed by the entry shows the natural chain unless it says otherwise.
UniProt Q6NT46: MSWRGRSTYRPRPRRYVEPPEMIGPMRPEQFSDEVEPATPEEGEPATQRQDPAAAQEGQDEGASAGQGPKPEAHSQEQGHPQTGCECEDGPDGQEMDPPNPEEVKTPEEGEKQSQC
UniProt Q16595: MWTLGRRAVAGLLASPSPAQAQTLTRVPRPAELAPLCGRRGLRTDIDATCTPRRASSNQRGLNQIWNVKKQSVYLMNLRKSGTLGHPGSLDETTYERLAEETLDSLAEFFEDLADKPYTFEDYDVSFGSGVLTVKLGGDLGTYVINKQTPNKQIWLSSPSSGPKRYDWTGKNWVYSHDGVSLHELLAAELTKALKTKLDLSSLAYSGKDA
UniProt Q9NY12: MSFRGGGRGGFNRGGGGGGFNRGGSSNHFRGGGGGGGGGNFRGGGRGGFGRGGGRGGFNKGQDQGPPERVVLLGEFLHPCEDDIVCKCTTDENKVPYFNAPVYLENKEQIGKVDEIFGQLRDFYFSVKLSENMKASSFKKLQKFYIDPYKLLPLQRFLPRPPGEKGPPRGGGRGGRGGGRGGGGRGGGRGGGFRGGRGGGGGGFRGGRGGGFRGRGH
UniProt Q8NB37: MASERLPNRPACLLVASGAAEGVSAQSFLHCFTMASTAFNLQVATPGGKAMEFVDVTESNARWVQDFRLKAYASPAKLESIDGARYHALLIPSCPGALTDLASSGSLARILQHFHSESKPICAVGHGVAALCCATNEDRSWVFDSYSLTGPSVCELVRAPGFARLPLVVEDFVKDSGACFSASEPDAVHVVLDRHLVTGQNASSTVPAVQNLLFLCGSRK
UniProt P04066: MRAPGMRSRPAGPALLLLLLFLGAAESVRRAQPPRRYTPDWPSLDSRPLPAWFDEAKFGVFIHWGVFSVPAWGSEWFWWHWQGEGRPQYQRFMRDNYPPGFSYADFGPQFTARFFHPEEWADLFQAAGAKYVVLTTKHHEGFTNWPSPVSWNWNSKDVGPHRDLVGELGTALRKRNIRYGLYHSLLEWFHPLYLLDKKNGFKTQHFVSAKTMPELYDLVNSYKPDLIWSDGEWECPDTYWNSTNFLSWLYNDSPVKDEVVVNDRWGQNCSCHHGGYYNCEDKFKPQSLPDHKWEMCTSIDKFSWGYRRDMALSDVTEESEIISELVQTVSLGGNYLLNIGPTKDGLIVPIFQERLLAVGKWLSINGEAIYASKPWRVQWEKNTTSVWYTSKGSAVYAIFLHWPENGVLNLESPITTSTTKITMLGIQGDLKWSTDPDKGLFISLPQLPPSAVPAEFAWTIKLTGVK
UniProt P48507: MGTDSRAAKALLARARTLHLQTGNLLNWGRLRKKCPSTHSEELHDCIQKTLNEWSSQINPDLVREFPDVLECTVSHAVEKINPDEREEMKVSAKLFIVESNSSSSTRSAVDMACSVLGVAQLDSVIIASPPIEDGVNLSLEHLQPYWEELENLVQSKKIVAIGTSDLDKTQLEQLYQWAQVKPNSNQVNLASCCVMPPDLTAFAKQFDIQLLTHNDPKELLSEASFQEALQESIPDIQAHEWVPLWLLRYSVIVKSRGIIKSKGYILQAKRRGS
UniProt Q92616, whole entry, looked up: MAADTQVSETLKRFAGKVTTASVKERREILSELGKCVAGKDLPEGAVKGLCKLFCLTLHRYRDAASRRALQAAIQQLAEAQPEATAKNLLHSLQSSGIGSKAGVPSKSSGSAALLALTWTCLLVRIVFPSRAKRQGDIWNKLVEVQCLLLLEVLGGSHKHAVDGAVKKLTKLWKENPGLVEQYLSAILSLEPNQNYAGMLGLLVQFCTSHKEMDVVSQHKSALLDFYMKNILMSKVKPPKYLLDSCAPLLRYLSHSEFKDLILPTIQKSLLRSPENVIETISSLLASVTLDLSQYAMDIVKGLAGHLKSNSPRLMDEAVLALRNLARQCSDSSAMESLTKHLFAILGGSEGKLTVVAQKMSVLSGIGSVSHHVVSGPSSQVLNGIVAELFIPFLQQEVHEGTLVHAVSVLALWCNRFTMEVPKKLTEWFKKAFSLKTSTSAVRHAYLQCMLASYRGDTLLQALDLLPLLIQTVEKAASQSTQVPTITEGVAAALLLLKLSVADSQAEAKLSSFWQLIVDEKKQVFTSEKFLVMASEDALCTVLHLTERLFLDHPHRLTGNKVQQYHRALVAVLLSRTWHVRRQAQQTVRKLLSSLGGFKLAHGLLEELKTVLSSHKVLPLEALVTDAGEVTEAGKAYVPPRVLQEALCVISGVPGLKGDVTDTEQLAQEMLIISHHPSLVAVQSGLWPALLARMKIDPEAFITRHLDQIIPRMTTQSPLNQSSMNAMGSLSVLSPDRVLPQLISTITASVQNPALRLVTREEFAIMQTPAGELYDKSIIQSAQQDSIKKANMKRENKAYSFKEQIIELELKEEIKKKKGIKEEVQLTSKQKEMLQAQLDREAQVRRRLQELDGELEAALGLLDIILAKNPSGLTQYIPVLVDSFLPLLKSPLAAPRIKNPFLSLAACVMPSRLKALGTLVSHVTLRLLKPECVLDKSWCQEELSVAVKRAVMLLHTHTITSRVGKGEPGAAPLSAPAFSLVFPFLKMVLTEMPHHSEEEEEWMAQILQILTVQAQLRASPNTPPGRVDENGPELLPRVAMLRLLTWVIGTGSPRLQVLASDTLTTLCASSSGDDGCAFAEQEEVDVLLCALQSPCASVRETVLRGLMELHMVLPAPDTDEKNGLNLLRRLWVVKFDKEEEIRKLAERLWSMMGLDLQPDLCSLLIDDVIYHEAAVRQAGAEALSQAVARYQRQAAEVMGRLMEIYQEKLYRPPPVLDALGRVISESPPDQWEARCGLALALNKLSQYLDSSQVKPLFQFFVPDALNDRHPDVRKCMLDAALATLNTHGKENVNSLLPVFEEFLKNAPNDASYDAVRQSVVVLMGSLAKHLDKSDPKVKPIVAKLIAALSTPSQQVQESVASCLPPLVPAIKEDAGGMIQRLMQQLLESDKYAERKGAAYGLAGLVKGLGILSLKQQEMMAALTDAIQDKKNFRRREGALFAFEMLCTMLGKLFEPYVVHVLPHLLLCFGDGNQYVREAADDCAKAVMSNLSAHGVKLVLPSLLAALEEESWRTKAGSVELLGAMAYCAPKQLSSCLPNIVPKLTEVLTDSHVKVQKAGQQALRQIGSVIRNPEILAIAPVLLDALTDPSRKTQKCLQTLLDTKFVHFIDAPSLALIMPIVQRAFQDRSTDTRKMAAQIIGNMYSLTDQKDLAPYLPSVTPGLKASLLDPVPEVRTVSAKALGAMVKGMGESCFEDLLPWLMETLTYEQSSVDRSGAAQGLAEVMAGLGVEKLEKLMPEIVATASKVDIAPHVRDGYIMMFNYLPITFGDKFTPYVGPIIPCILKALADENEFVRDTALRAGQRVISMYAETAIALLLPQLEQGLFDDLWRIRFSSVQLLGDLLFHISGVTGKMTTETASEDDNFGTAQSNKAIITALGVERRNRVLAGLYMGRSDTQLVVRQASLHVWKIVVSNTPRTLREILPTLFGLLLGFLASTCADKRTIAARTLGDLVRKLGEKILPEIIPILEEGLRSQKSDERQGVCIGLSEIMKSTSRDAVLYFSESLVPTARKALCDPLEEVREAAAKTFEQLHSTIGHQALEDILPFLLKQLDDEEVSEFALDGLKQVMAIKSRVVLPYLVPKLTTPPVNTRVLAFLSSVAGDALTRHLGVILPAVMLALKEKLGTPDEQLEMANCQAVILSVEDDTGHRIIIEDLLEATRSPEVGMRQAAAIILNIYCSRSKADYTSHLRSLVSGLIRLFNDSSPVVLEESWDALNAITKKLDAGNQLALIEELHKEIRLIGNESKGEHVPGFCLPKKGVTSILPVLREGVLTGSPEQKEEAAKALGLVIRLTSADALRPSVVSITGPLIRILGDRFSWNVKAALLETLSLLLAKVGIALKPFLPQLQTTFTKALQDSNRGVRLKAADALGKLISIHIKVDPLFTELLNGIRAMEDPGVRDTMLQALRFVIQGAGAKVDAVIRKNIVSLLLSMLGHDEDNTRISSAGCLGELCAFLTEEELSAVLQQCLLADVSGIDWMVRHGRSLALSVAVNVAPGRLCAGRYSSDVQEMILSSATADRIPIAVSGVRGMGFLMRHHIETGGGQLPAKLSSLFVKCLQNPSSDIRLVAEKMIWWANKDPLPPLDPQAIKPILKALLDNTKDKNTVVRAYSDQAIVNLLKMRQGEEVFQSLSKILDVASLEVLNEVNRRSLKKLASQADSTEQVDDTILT
UniProt Q8WXD5: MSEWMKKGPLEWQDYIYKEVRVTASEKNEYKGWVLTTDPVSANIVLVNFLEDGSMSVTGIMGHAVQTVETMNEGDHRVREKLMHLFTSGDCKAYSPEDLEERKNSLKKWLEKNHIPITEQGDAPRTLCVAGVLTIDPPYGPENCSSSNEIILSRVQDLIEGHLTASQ
UniProt Q06547, whole entry, looked up: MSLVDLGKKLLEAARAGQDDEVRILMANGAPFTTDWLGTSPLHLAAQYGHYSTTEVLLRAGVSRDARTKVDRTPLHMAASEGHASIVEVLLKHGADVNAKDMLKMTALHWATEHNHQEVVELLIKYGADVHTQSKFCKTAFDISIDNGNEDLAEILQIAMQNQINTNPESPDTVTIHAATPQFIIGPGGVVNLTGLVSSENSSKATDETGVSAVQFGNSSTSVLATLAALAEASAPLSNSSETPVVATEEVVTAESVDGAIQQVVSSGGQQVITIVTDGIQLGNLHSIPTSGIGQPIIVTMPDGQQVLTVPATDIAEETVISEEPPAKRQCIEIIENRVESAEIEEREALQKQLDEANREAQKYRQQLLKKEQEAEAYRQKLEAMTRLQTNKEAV
UniProt Q9UPW0: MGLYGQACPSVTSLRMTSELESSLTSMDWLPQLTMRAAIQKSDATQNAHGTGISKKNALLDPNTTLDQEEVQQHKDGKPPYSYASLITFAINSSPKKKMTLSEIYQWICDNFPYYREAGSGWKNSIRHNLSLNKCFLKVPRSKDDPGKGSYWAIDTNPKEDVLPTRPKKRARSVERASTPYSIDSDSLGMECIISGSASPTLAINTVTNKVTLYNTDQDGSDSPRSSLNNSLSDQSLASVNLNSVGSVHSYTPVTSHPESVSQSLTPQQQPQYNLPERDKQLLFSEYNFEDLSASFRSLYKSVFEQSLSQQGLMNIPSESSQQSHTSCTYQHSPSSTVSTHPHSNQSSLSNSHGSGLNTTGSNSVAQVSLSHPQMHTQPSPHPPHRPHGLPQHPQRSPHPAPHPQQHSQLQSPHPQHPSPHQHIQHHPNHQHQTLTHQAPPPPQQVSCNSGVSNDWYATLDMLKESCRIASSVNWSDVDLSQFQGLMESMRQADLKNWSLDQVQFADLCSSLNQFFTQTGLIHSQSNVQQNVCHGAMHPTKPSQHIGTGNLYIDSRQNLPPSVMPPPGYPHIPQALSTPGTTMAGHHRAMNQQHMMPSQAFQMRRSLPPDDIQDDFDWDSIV
UniProt P02792: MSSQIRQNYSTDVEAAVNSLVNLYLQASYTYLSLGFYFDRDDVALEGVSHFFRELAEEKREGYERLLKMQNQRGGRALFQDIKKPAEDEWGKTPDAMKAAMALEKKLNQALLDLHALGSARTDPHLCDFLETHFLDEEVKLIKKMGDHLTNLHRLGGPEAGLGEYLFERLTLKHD
UniProt P48506: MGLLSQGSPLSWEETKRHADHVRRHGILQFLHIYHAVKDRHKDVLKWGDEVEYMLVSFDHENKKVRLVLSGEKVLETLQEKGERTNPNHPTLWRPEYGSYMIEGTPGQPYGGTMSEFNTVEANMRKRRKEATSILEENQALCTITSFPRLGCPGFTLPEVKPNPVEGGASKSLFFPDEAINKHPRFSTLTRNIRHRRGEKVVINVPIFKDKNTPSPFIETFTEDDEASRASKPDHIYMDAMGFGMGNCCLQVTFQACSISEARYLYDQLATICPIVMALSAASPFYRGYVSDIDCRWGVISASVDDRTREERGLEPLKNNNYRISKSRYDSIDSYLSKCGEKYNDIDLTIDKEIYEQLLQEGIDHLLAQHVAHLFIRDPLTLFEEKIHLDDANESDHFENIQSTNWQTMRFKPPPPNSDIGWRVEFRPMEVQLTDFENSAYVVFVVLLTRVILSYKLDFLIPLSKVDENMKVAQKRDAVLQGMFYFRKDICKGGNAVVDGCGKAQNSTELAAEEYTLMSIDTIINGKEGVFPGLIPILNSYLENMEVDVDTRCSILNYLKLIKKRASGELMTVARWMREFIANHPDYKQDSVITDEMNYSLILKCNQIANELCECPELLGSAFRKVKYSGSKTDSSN
UniProt Q14376: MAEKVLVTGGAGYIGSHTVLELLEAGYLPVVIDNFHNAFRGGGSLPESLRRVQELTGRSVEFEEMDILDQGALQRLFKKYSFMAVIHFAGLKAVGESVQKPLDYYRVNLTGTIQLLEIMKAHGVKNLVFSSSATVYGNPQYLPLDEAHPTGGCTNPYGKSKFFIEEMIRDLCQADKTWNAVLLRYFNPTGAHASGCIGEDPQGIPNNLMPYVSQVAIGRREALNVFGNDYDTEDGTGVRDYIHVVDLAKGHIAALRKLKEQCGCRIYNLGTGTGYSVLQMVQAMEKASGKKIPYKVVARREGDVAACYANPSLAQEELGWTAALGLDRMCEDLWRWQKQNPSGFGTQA

What was measured:
Assay in all cases: log2 fold change, soluble protein after heating vs DMSO (PISA); higher = thermal stabilisation; K562 lysate, 10 uM; active = over 0.2 and 3.5 SD of the protein, either way, in both replicates (recomputed)
[1] = compound: C#Cc1cccc(Nc2ncnc3cc(OCCOC)c(OCCOC)cc23)c1 [erlotinib]
Procedure, shortened: (§1)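 K562 pellets were dounce-homogenised in PBS pH 7.4 containing 1 mM MgCl2, and the crude extract, at 1 mg/mL protein, was exposed to 10 μM compound for 30 min. Aliquots were heated for 3 min across 48°C-58°C, pooled, brought to 0.5% NP-40 at 4°C and spun at 21,000xg for 90 min, with the supernatant taken as soluble protein. TMTpro 16plex LC-MS/MS with equalised channel sums quantified that protein. Values are log-two fold changes in thermal stability relative to solvent controls, taken from duplicates.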

[2] = compound: C/C(=N\NC(=O)C1=CC(=CC=C1)S(=O)(=O)N2CCOCC2)/C3=C(C=CC(=C3)Cl)O
Procedure, shortened: as §1

[3] = compound: C1=CC(=CC=C1C2=NC3=C(N2)C=C(C=C3)C(=O)N)OC4=CC=C(C=C4)Cl
Procedure, shortened: as §1

[4] = compound: C1=CC2=C(C=CC(=C2)/C=C\3/C(=O)NC(=NCC4=CC=CS4)S3)N=C1
Procedure, shortened: as §1

[5] = compound: C1=CC2=NC=CN=C2C=C1/C=C/3\C(=O)NC(=O)S3
Procedure, shortened: as §1

[6] = compound: C1=CC=C(C=C1)C2=NC(=C(N2)C3=CC=NC=C3)C4=CC(=C(C=C4)Cl)O
Procedure, shortened: as §1

[7] = compound: C1=CC=C2C(=C1)C3=NNC4=CC=CC(=C43)C2=O
Procedure, shortened: as §1

[8] = compound: C1CCN(C1)C(=O)NC2=CC=CC(=C2)NC3=NC=C(C(=N3)NCCC4=CN=CN4)Br
Procedure, shortened: as §1

[9] = compound: C1CN(CCC1(CC2=CC=C(C=C2)Cl)N)C3=NC=NC4=C3C=CN4
Procedure, shortened: as §1

[10] = compound: C1COCCN1CCN2C3=CC=CC=C3N=C2NC(=O)C4=CC(=CC=C4)[N+](=O)[O-] [IRAK-1-4 Inhibitor I]
Procedure, shortened: as §1

Measured: log2 fold change

GALNS (UniProt P34059)
inactive: [1] -0.024 | [2] 0.011 | [3] 0.013 | [4] 0.052 | [5] 0.042 | [6] 0.019 | [7] -0.02 | [8] -0.018 | [9] 0.031 | [10] 0.007

GAB1 isoform 2 (UniProt Q13480)
inactive: [1] 0.018 | [2] 0.009 | [3] 0.045 | [4] 0.023 | [5] -0.004 | [6] -0.02 | [7] 0.005 | [8] 0.096 | [9] -0.018 | [10] 0.058

GDAP1 (UniProt Q8TB36)
inactive: [1] 0.074 | [2] -0.002 | [3] 0.002 | [4] -0.115 | [5] -0.021 | [6] -0.154 | [7] -0.221 | [8] 0.24 | [9] -0.087 | [10] 0.125

GAGE2A (UniProt Q6NT46)
inactive: [1] 0.058 | [2] -0.292 | [3] 0.019 | [4] -0.037 | [5] -0.02 | [6] 0.012 | [7] 0 | [8] 0.05 | [9] 0.085 | [10] 0.032

FTSJ3 (UniProt Q8IY81)
inactive: [1] 0.064 | [2] -0.157 | [3] 0.002 | [4] -0.014 | [5] -0.028 | [6] 0.025 | [7] 0.065 | [8] 0.012 | [9] 0.022 | [10] -0.018

GABARAP (UniProt O95166)
inactive: [1] 0.019 | [2] 0.06 | [3] 0.006 | [4] 0.091 | [5] -0.119 | [6] 0.04 | [7] -0.033 | [8] 0.048 | [9] 0.016 | [10] 0.006

FXN (UniProt Q16595)
inactive: [1] 0.019 | [2] 0.021 | [3] -0.04 | [4] -0.006 | [5] -0.051 | [6] -0.01 | [7] -0.029 | [8] 0.054 | [9] 0.106 | [10] -0.004

GFM2 (UniProt Q969S9)
inactive: [1] -0.003 | [2] -0.159 | [3] -0.031 | [4] -0.031 | [5] 0.046 | [6] 0 | [7] -0.071 | [8] 0.022 | [9] 0.062 | [10] -0.035

GAR1 (UniProt Q9NY12)
inactive: [1] 0.02 | [2] -0.05 | [3] 0 | [4] -0.014 | [5] 0.034 | [6] 0.038 | [7] -0.014 | [8] -0.001 | [9] -0.011 | [10] 0.006

GATD1 (UniProt Q8NB37)
inactive: [1] 0.014 | [2] 0.054 | [3] -0.001 | [4] -0.011 | [5] 0.017 | [6] 0.024 | [7] 0.042 | [8] 0.038 | [9] 0 | [10] 0.024

FUCA1 (UniProt P04066)
inactive: [1] 0 | [2] 0.008 | [3] 0.037 | [4] -0.013 | [5] 0.015 | [6] 0.024 | [7] -0.001 | [8] 0.039 | [9] -0.018 | [10] 0.009

GCLM (UniProt P48507)
inactive: [1] -0.012 | [2] 0.021 | [3] 0.006 | [4] 0.007 | [5] 0.023 | [6] -0.001 | [7] -0.034 | [8] 0.014 | [9] 0.039 | [10] 0.016

2 entries picked at random from those above, as already listed:
GCLM (UniProt P48507)
inactive: [1] -0.012 | [2] 0.021 | [3] 0.006 | [4] 0.007 | [5] 0.023 | [6] -0.001 | [7] -0.034 | [8] 0.014 | [9] 0.039 | [10] 0.016

GFM2 (UniProt Q969S9)
inactive: [1] -0.003 | [2] -0.159 | [3] -0.031 | [4] -0.031 | [5] 0.046 | [6] 0 | [7] -0.071 | [8] 0.022 | [9] 0.062 | [10] -0.035

(listing goes on)

GCN1 (UniProt Q92616)
inactive: [1] 0.048 | [2] 0.066 | [3] -0.086 | [4] 0.022 | [5] 0.054 | [6] 0.026 | [7] -0.016 | [8] -0.008 | [9] 0.003 | [10] 0.008

FUBP1 isoform 2 (UniProt Q96AE4)
inactive: [1] -0.012 | [2] 0.02 | [3] 0.024 | [4] -0.008 | [5] 0.007 | [6] -0.002 | [7] 0.006 | [8] 0.023 | [9] 0.018 | [10] 0.023

GAMT (UniProt Q14353)
inactive: [1] 0.018 | [2] -0.008 | [3] 0.033 | [4] -0.008 | [5] -0.01 | [6] -0.016 | [7] 0.036 | [8] 0.035 | [9] 0.066 | [10] -0.001

G3BP1 (UniProt Q13283)
inactive: [1] -0.026 | [2] -0.094 | [3] -0.001 | [4] 0.003 | [5] -0.002 | [6] -0.022 | [7] 0.003 | [8] -0.008 | [9] -0.031 | [10] -0.02

GADD45GIP1 (UniProt Q8TAE8)
inactive: [1] -0.006 | [2] -0.006 | [3] -0.004 | [4] 0.002 | [5] 0.01 | [6] -0.001 | [7] -0.101 | [8] -0.014 | [9] 0.057 | [10] -0.025

FURIN (UniProt P09958)
inactive: [1] -0.005 | [2] -0.05 | [3] 0.028 | [4] 0.012 | [5] -0.091 | [6] -0.01 | [7] -0.092 | [8] 0.102 | [9] -0.012 | [10] -0.027

FXR2 (UniProt P51116)
inactive: [1] 0.018 | [2] 0.026 | [3] -0.01 | [4] -0.042 | [5] 0.022 | [6] -0.029 | [7] -0.092 | [8] -0.085 | [9] 0.003 | [10] -0.075

GEMIN6 (UniProt Q8WXD5)
inactive: [1] 0.02 | [2] 0.033 | [3] 0.024 | [4] -0.049 | [5] 0.003 | [6] -0.008 | [7] -0.017 | [8] -0.022 | [9] 0.033 | [10] 0.021

GABPB1 (UniProt Q06547)
inactive: [1] -0.004 | [2] 0.033 | [3] 0.012 | [4] 0.028 | [5] 0.035 | [6] 0.016 | [7] -0.009 | [8] 0.026 | [9] -0.008 | [10] -0.042

FOXK2 (UniProt Q01167)
inactive: [1] -0.03 | [2] -0.078 | [3] 0.018 | [4] 0.05 | [5] -0.046 | [6] 0.033 | [7] 0.013 | [8] -0.039 | [9] -0.014 | [10] -0.006

FOXJ3 (UniProt Q9UPW0)
inactive: [1] 0.018 | [2] 0.085 | [3] -0.015 | [4] -0.001 | [5] 0.014 | [6] 0.032 | [7] -0.01 | [8] -0.035 | [9] -0.013 | [10] -0.025

FTL (UniProt P02792)
inactive: [1] -0.14 | [2] -0.599 | [3] -0.077 | [4] -0.027 | [5] -0.006 | [6] 0.11 | [7] 0.012 | [8] -0.063 | [9] -0.034 | [10] 0.169

GCLC (UniProt P48506)
inactive: [1] -0.014 | [2] -0.027 | [3] 0.021 | [4] 0.038 | [5] -0.006 | [6] -0.01 | [7] -0.045 | [8] 0 | [9] 0.005 | [10] 0.015

GALE (UniProt Q14376)
inactive: [1] 0 | [2] 0.025 | [3] -0.108 | [4] 0.008 | [5] -0.001 | [6] -0.025 | [7] -0.061 | [8] -0.028 | [9] -0.006 | [10] -0.034

FRG1 (UniProt Q14331)
inactive: [1] 0.006 | [2] 0.004 | [3] -0.039 | [4] 0.025 | [5] -0.049 | [6] -0.032 | [7] -0.039 | [8] -0.061 | [9] -0.016 | [10] -0.06
